Assay results as given in patent US6455271B1, “Identification of novel antimicrobial agents using membrane potential indicator dyes” (XOMA Technology, Ltd, priority 1998, dated 2002).
Part of at least one peptide drawing is inferred or uncertain, most often the ends. Peptide text beside a SMILES is read from it.

Key:
[1] = system: C. albicans cells; assay: Fungal cells treated with a variety of membrane potential indicator dyes, flow cytometry; assay type: cell-based, Candida albicans; details: all four dyes, FIG. 4
[2] = system: C. albicans SLU#1; assay: Propidium iodide (PI) uptake by fungal cells, flow cytometry; assay type: cell-based, Candida albicans; details: C. albicans SLU#1, 10 μg/mL PI, FL2 585 nm; FIG. 2
[3] = system: Candida albicans strain SLU#1; assay: Flow cytometry of fungal cells treated with test agent and membrane potential dye DiOC6(3); assay type: cell-based; details: C. albicans SLU#1
Description: A stock fungal cell suspension was prepared as follows. Fungi (Candida albicans strain SLU#1) were cultured on Sabouraud's dextrose agar plates [1 L water, 10 g neopeptone, 20 g dextrose, 15 g Bacto Agar]. One or two colonies from the agar plate were inoculated into 5 mL of Sabouraud's dextrose broth (SDB) [1 L water, 10 g neopeptone, 20 g dextrose] in a sterile 10 mL polypropylene tube and incubated for about 18 hours at 30° C. After this incubation, 4 mL of the fungal culture was inoculated into a flask containing 100 mL of SDB and incubated for about 5 hours or until log growth phase was reached. […] Fungal cell concentration was determined either by absorbance at 570 nm or by diluting 1:10 with Trypan Blue and counting the number of fungal cells using a hemacytometer. […]
Stock 1 mg/mL solutions of peptides XMP.391 and XMP.445 were prepared in saline, and six 2-fold serial dilutions were prepared using phosphate buffered saline (PBS). […] No peptide solution was added to the auto-fluorescence and baseline controls. […] The auto-fluorescence control aliquot was resuspended in 1 mL of SDB; the remainder of the samples and the baseline control were resuspended in 1 mL of 10 ng/mL DiOC6(3)/SDB. The auto-fluorescence control thus contained fungal cells in SDB alone (without XMP peptide and without dye), while the baseline control contained fungal cells with dye (but without XMP peptide). […]

## CC[C@H](C)[C@H](NC(=O)[C@H](CC(C)C)NC(=O)[C@H](Cc1c[nH]c2ccccc12)NC(=O)CNC(=O)[C@@H](NC(=O)[C@@H](N)CCCCN)C(C)C)C(=O)N[C@@H](CCC(N)=O)C(=O)N[C@@H](CC(C)C)C(=O)N[C@@H](Cc1ccccc1)C(=O)N[C@@H](Cc1c[nH]cn1)C(=O)N[C@@H](CCCCN)C(=O)N[C@@H](CCCCN)C(=O)O [XMP.391] (H-KVGWLIQLFHKK-OH; N-terminus and C-terminus assumed)
[1]
  dye accumulation pattern with JC-1, dihydrorhodamine 123, DiOC6(3) and MitoTracker Red CM-H2Xros: concentration-dependent dye accumulation and retention in mitochondria
[2]
  fungal cell viability by PI uptake: reduction of fungal cell viability or fungal cell death
[3]
  concentration at which loss of fungal cell viability occurs: about 2 μg/mL
